The source of these data is US6372772B1, “Inhibitors of redox signaling and methods of using same” (Prolx Pharmaceuticals Corporation, priority 1997, dated 2002).

Protein sequences, listed by entry. Tags and fused reporters are not part of them. Residues count along the entry.
UniProt Q16881, 151-649: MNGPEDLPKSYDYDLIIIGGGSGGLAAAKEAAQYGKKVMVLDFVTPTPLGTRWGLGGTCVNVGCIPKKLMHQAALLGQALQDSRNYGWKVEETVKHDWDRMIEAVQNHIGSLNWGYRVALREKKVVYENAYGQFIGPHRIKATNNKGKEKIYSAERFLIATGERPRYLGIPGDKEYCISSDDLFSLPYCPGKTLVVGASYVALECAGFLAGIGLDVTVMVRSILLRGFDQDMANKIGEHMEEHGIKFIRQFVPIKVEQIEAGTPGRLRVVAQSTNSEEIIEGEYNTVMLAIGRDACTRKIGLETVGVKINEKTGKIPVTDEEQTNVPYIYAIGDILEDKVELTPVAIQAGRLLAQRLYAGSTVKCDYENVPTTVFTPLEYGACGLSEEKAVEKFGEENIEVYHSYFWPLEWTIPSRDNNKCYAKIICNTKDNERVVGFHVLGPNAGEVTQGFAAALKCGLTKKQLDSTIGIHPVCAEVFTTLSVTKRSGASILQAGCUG
UniProt P00390, 44-522: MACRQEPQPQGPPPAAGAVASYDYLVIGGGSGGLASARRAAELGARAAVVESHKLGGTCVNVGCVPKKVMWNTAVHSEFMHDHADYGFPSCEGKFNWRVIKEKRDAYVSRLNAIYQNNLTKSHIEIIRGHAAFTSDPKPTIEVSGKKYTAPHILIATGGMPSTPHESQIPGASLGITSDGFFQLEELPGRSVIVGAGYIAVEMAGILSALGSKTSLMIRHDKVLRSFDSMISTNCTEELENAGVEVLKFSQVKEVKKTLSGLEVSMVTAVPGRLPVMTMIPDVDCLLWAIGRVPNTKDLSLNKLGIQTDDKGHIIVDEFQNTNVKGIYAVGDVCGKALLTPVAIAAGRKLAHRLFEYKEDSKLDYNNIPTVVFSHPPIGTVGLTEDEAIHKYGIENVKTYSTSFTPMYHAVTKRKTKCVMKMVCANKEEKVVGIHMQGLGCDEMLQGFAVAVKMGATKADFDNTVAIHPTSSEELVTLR

Values after ≈ are worked out from the molar mass of the structure shown. Structures were worked out from names or drawings and are uncertain.

The subject of one assay is leukemia cell line. The following applies: mean 50% growth inhibition concentration; cited from earlier work.
In assay [1] the test system is NCI's panel of 60 human cancer cell lines. To be noted: mean 50% growth inhibition concentration, entire cell line panel; cited from earlier work.
Assay [2] deals with thioredoxin reductase/thioredoxin (Homo sapiens, UniProt Q16881). The assay is described as follows: thioredoxin reductase/thioredoxin-dependent insulin reduction assay. Type of assay: biochemical. To be noted: for IC50 (μg/ml) in TR/Trx Assay: Table I, 30 min preincubation; for in vitro IC50 TR/Trx (μg/ml): Table III; for IC50TRTrx: Table II; for TR/TRTrx: ratio of IC50 TR alone and IC50 TR/Trx assay.

In the next assay the target is thioredoxin reductase (Homo sapiens, UniProt Q16881). The assay can be described thus: thioredoxin reductase assay (DTNB reduction). To be noted: for IC50TR: Table II, thioredoxin reductase alone; for GR/TR: ratio of IC50 glutathione reductase to IC50 thioredoxin reductase.
A further assay deals with glutathione reductase (Homo sapiens, UniProt P00390). The assay can be described thus: glutathione reductase assay (DTNB reduction). Type of assay: biochemical. To be noted: Table II.

For `O=C1C(Br)=C(c2ccccc2)C(c2ccccc2)=C1c1ccccc1`, in the assay on leukemia cell line, the “GI50 (μg/ml) Leukemias” value was 0.4 µg/mL (≈ 1.03 µM). The “GI50 (μg/ml) All Tumors” value in assay [1] was 1.5 µg/mL (≈ 3.87 µM). In addition, in assay [2], the “IC50 (μg/ml) in TR/Trx Assay” value worked out at 4.0 µg/mL (≈ 10.3 µM) and the “in vitro IC50 TR/Trx (μg/ml)” value is on record as “≦5.0 μg/ml”.

For `c1ccc(P(c2ccccc2)c2ccccc2)cc1`, the “GI50 (μg/ml) Leukemias” value in the assay with leukemia cell line was 1.1 µg/mL (≈ 4.19 µM). For the same molecule, in assay [1], the “GI50 (μg/ml) All Tumors” value is 3.8 µg/mL (≈ 14.5 µM). Besides, in assay [2], the “IC50 (μg/ml) in TR/Trx Assay” value was 7.0 µg/mL (≈ 26.7 µM) and the “in vitro IC50 TR/Trx (μg/ml)” value is reported as “≦10.0 μg/ml”.

As for `O=C1C(Br)=CC2(C=C1Br)CCNc1c(O)c3c4c(c12)=NCCC=4C=N3`, the “GI50 (μg/ml) Leukemias” value in the assay with leukemia cell line is 0.01 µg/mL (≈ 0.0216 µM). Further, the “GI50 (μg/ml) All Tumors” value in assay [1] is 0.1 µg/mL (≈ 0.216 µM). In assay [2], the “IC50 (μg/ml) in TR/Trx Assay” value was found to be 2.3 µg/mL (≈ 4.97 µM) and the “in vitro IC50 TR/Trx (μg/ml)” value was “≦5.0 μg/ml”.

As for `O=C(C(=O)n1ncc(Cl)c(Cl)c1=O)n1ncc(Cl)c(Cl)c1=O`, the “GI50 (μg/ml) Leukemias” value with leukemia cell line was 3.3 µg/mL (≈ 8.59 µM). Besides, the “GI50 (μg/ml) All Tumors” value in assay [1] is 9.9 µg/mL (≈ 25.8 µM). Further, the “IC50 (μg/ml) in TR/Trx Assay” value in assay [2] worked out at 11.0 µg/mL (≈ 28.6 µM).

Take `O=CN/C=C/c1cc(O)ccc1O`: the “GI50 (μg/ml) Leukemias” value in the assay on leukemia cell line was 1.0 µg/mL (≈ 5.58 µM). The “GI50 (μg/ml) All Tumors” value in assay [1] was 3.1 µg/mL (≈ 17.3 µM). In assay [2], the “IC50 (μg/ml) in TR/Trx Assay” value is 4.0 µg/mL (≈ 22.3 µM) and the “in vitro IC50 TR/Trx (μg/ml)” value is recorded as “≦5.0 μg/ml”.

On to `C=C1C(=O)O[C@H]2[C@H]1[C@@H](OC(=O)C=C(C)C)CC1=C[C@@H](C[C@@]3(C)O[C@@H]23)OC1=O`, for which the “GI50 (μg/ml) Leukemias” value in the assay on leukemia cell line was 0.2 µg/mL (≈ 0.534 µM). Moreover, at thioredoxin reductase, the “IC50TR” value was found to be 5 µg/mL (≈ 13.4 µM) and the GR/TR turned out to be 10. For the same molecule, the “GI50 (μg/ml) All Tumors” value in assay [1] is 1.3 µg/mL (≈ 3.47 µM). In assay [2], the “IC50 (μg/ml) in TR/Trx Assay” value came to 2.1 µg/mL (≈ 5.61 µM), the “IC50TRTrx” value was determined as 2.08 µg/mL (≈ 5.56 µM), the “in vitro IC50 TR/Trx (μg/ml)” value was “≦5.0 μg/ml” and the TR/TRTrx was 2.4. The “IC50GR” value against glutathione reductase was 50 µg/mL (≈ 134 µM).

In the case of `COc1ccc2c(c1)c1ccc3c(c1n2C)C(=O)C=CC3=O`, the “GI50 (μg/ml) Leukemias” value with leukemia cell line is 0.2 µg/mL (≈ 0.687 µM). Moreover, the “GI50 (μg/ml) All Tumors” value in assay [1] is 1.1 µg/mL (≈ 3.78 µM). Also, the “IC50 (μg/ml) in TR/Trx Assay” value in assay [2] came out at 35.0 µg/mL (≈ 120 µM).

Turning to `COC(=O)C1=CC2CC1C(S(=O)(=O)c1ccccc1)C2S(=O)(=O)c1ccccc1` (stereo not drawn), the “GI50 (μg/ml) Leukemias” value in the assay on leukemia cell line was 1.6 µg/mL (≈ 3.7 µM). Besides, in assay [1], the “GI50 (μg/ml) All Tumors” value is 5.8 µg/mL (≈ 13.4 µM). Also, the “IC50 (μg/ml) in TR/Trx Assay” value in assay [2] came to 25.0 µg/mL (≈ 57.8 µM).

As for `CN1CN(c2ccccc2)C2(CCN(CCCSc3ccccc3NC(=O)/C=C/c3ccccc3)CC2)C1=O`, the “GI50 (μg/ml) Leukemias” value with leukemia cell line is 1.9 µg/mL (≈ 3.51 µM). For the same molecule, in assay [1], the “GI50 (μg/ml) All Tumors” value was 2.4 µg/mL (≈ 4.44 µM). In assay [2], the “IC50 (μg/ml) in TR/Trx Assay” value amounted to 10.0 µg/mL (≈ 18.5 µM) and the “in vitro IC50 TR/Trx (μg/ml)” value was “≦10.0 μg/ml”.

Turning to `O=C1C=CC(=O)c2c1ccc1c3ccccc3n(Cc3cccc([N+](=O)[O-])c3)c21`, the “GI50 (μg/ml) Leukemias” value in the assay on leukemia cell line was 10.7 µg/mL (≈ 28 µM). In addition, at thioredoxin reductase, the “IC50TR” value amounted to 6 µg/mL (≈ 15.7 µM) and the GR/TR is 5. Further, in assay [1], the “GI50 (μg/ml) All Tumors” value was 14.9 µg/mL (≈ 39 µM). Further, in assay [2], the “IC50 (μg/ml) in TR/Trx Assay” value was found to be 1.5 µg/mL (≈ 3.92 µM), the “IC50TRTrx” value is 1.50 µg/mL (≈ 3.92 µM), the “in vitro IC50 TR/Trx (μg/ml)” value is “≦5.0 μg/ml” and the TR/TRTrx came out at 4.0. For the same molecule, the “IC50GR” value on glutathione reductase was determined as 28 µg/mL (≈ 73.2 µM).

On to `O=S(=O)(/C=C/C=C/S(=O)(=O)c1ccccc1)c1ccccc1`, for which, in the assay with leukemia cell line, the “GI50 (μg/ml) Leukemias” value is 0.1 µg/mL (≈ 0.299 µM). Further, the “GI50 (μg/ml) All Tumors” value in assay [1] is 0.5 µg/mL (≈ 1.5 µM). The “IC50 (μg/ml) in TR/Trx Assay” value in assay [2] turned out to be 40.0 µg/mL (≈ 120 µM).

Regarding `C=C1CC2(OC1=O)c1ccccc1C=Cc1ccccc12`, the “GI50 (μg/ml) Leukemias” value with leukemia cell line was 0.1 µg/mL (≈ 0.365 µM). In addition, the “GI50 (μg/ml) All Tumors” value in assay [1] is 0.5 µg/mL (≈ 1.82 µM). Besides, the “IC50 (μg/ml) in TR/Trx Assay” value in assay [2] was found to be 25.0 µg/mL (≈ 91.1 µM).

Turning to `C=C(CN(C)C)C(=O)c1ccc(OC2OC(COC(C)=O)C(OC(C)=O)C(OC(C)=O)C2OC(C)=O)cc1` (stereo not drawn), in the assay on leukemia cell line, the “GI50 (μg/ml) Leukemias” value was 0.1 µg/mL (≈ 0.187 µM). At thioredoxin reductase, the “IC50TR” value was 3 µg/mL (≈ 5.6 µM) and the GR/TR worked out at 12. Moreover, the “GI50 (μg/ml) All Tumors” value in assay [1] was 1.7 µg/mL (≈ 3.17 µM). In assay [2], the “IC50 (μg/ml) in TR/Trx Assay” value was 2.0 µg/mL (≈ 3.73 µM), the “IC50TRTrx” value was 2.00 µg/mL (≈ 3.73 µM), the “in vitro IC50 TR/Trx (μg/ml)” value is “≦5.0 μg/ml” and the TR/TRTrx was determined as 1.5. In addition, the “IC50GR” value at glutathione reductase was 35 µg/mL (≈ 65.4 µM).

For the molecule `O=[N+]([O-])/C(C(Cl)=C(Cl)Cl)=C(/Cl)Sc1ccccc1`, the “GI50 (μg/ml) Leukemias” value with leukemia cell line was 0.1 µg/mL (≈ 0.29 µM). In addition, the “GI50 (μg/ml) All Tumors” value in assay [1] was 0.7 µg/mL (≈ 2.03 µM). Also, in assay [2], the “IC50 (μg/ml) in TR/Trx Assay” value amounted to 0.42 µg/mL (≈ 1.22 µM) and the “in vitro IC50 TR/Trx (μg/ml)” value is “≦0.5 μg/ml”.
